According to paper PMC4990422, “Coupling between the DEAD-box RNA helicases Ded1p and eIF4A” (eLife, 2016):
Results are given in words; binding and its absence hold for the method and conditions named. Tags and fused reporters may be left off the sequences shown.

The chains behind the UniProt entries cited, without tags or fusion partners. Where a name states a change or a piece, a line headed by the entry shows the natural chain unless it says otherwise. Residues count along the entry.
UniProt P06634, residues 117-604: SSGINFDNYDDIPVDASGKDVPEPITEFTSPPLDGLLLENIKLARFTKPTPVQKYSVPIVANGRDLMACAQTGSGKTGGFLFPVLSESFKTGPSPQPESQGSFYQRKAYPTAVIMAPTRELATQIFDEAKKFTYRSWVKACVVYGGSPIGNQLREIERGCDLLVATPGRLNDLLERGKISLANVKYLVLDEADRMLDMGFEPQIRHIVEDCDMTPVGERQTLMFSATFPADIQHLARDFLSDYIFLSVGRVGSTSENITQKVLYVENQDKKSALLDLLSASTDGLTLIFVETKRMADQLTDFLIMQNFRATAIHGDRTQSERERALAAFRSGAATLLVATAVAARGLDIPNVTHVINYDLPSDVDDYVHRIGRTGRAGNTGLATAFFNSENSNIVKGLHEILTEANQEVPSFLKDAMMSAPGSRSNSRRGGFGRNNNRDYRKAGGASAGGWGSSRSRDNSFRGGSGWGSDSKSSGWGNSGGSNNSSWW

Target: T1, GST-eIF4A (GST-His6-eIF4A) (S. cerevisiae) (UniProt P10081)
T1 sequence: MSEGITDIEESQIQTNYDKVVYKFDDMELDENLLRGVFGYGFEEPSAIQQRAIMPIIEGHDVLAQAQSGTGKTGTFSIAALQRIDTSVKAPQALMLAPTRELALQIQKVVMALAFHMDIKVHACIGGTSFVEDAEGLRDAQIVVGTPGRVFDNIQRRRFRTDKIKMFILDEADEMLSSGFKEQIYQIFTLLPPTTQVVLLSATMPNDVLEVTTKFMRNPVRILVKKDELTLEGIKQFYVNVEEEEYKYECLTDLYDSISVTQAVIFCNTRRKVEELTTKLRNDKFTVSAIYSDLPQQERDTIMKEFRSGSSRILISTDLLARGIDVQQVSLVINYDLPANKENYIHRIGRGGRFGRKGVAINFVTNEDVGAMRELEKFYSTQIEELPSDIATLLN
Experiment: pull-down; 1500 nM GST-eIF4A on glutathione sepharose 4B; 1500 nM Ded1p^117-604 or Ded1p^1-535; 20 µg/mL RNases A,B; 5 µg/µL BSA; 8°C overnight; washed with RIPA buffer; Western blot with α-Ded1p; both purified

Ded1p^117-604 (N-terminus deleted) (from UniProt P06634 117-604) (domain or fragment)
binding: no binding (tested: 1500 nM)
